Measurements reported in PubChem BioAssay AID1159578 (Peter MacCallum Cancer Centre, 2015).
Assay: 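siRNA pools altering how lymphatic endothelial cells close a scratch wound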 (primary screen). Cells: human lymphatic endothelial cells. Reagents: siRNA pool against human genes, 40 nM. Timing: 48 h after transfection. Measured: 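High-content imaging of dye-stained cells in a scratch assay measures filled wound area and nuclei per well; duplicate means given as ratio to mock and robust z-score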. Scale: migration robust z-score: higher = faster migration into the scratch; migration relative to mock: higher = more scratch area covered than mock; nuclei per well: higher = more cells in the well. Active means: 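Pools averaging fewer than 3300 nuclei are never called; remaining pools count as changed when migration robust z lies outside -2 to 2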. Meaning of the calls: active = migration changed; inactive = no migration change, or too few cells.
Here is an unselected part of about 18,000 reagents tested. About 1,030 of them (5.7%) count as active. 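Inactive calls also include pools with fewer than 3300 nuclei, whose migration was not assessed.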 Raw values vary from plate to plate and are shown uncorrected. Unmarked entries are inactive. No sequences are given here.

| Target gene | migration robust z-score | migration class with cell-count check | migration relative to mock | nuclei per well, duplicate mean |
| --- | --- | --- | --- | --- |
| ACSM5 | -0.26 | migration z between -2 and 2; enough cells | 0.82 | 5388 |
| PITHD1 | -0.94 | migration z between -2 and 2; enough cells | 0.64 | 6201 |
| ARL5A | 0.15 | migration z between -2 and 2; enough cells | 0.84 | 5389 |
| POMC | -0.55 | migration z between -2 and 2; enough cells | 0.74 | 5737 |
| SCGB1C1 | -3.89 (active) | migration z below -2; enough cells | -0.12 | 6060 |
| CXCL8 | -0.5 | migration z between -2 and 2; enough cells | 0.76 | 5552 |
| COL19A1 | -1.15 | migration z between -2 and 2; enough cells | 0.59 | 4858 |
| GOLIM4 | 0.85 | migration z between -2 and 2; enough cells | 1.1 | 5982 |
| CIMIP5 | 0.12 | migration z between -2 and 2; enough cells | 0.92 | 6064 |
| ALG1L1P | -0.68 | migration z between -2 and 2; enough cells | 0.72 | 5761 |
| EPB42 | 0.08 | migration z between -2 and 2; enough cells | 0.82 | 5388 |
| BPI | 0.44 | migration z between -2 and 2; enough cells | 0.89 | 5119 |
| KMT5C | 0.05 | migration z between -2 and 2; enough cells | 0.82 | 4843 |
| MBLAC1 | -0.44 | migration z between -2 and 2; enough cells | 0.77 | 6115 |
| KLRC2 | 1.06 | migration z between -2 and 2; enough cells | 1.16 | 6133 |
| ANKRD54 | -0.68 | migration z between -2 and 2; enough cells | 0.71 | 6453 |
| C1QBP | 0.38 | migration z between -2 and 2; enough cells | 0.98 | 5688 |
| CTBP1-DT | -1.12 | migration z between -2 and 2; enough cells | 0.6 | 4652 |
| POLR3E | 0.49 | migration z between -2 and 2; enough cells | 1.01 | 6464 |
| IDH3B | -0.42 | migration z between -2 and 2; enough cells | 0.72 | 4738 |
| LRRC17 | -0.9 | migration z between -2 and 2; enough cells | 0.65 | 5834 |
| OR2B11 | -2.05 (active) | migration z below -2; enough cells | 0.35 | 5022 |
| NLRP10 | -0.05 | migration z between -2 and 2; enough cells | 0.8 | 7038 |
| SLC2A7 | -0.81 | migration z between -2 and 2; enough cells | 0.68 | 6374 |
| WNK3 | -0.6 | migration z between -2 and 2; enough cells | 0.69 | 4125 |
| TIAM1 | -0.47 | migration z between -2 and 2; enough cells | 0.72 | 5887 |
| CCDC87 | 0.34 | migration z between -2 and 2; enough cells | 0.97 | 5782 |
| ALDH1A3 | -0.86 | migration z between -2 and 2; enough cells | 0.66 | 7043 |
| ZNF580 | -1.17 | migration z between -2 and 2; enough cells | 0.58 | 4526 |
| DUSP16 | -0.13 | migration z between -2 and 2; enough cells | 0.78 | 4921 |
| PITPNM1 | -0.34 | migration z between -2 and 2; enough cells | 0.74 | 6755 |
| MSANTD2 | 1.04 | migration z between -2 and 2; enough cells | 1.15 | 5758 |
| TUT1 | -0.59 | migration z between -2 and 2; enough cells | 0.73 | 4810 |
| FOXD4L4 | -1.58 | under 3300 nuclei; migration not judged | 0.47 | 3180 |
| TEX19 | -0.55 | migration z between -2 and 2; enough cells | 0.74 | 4348 |
| HRC | 0.99 | migration z between -2 and 2; enough cells | 1 | 5365 |
| RIDA | 0.04 | migration z between -2 and 2; enough cells | 0.89 | 5902 |
| IL17RC | 1.46 | migration z between -2 and 2; enough cells | 1.26 | 6384 |
| GCNT1 | 0.13 | migration z between -2 and 2; enough cells | 0.83 | 5226 |

Reprinted from the listing, 3 entries:
| Target gene | migration robust z-score | migration class with cell-count check | migration relative to mock | nuclei per well, duplicate mean |
| --- | --- | --- | --- | --- |
| RIDA | 0.04 | migration z between -2 and 2; enough cells | 0.89 | 5902 |
| IL17RC | 1.46 | migration z between -2 and 2; enough cells | 1.26 | 6384 |
| GCNT1 | 0.13 | migration z between -2 and 2; enough cells | 0.83 | 5226 |
